# Laboratory results: PubChem BioAssay AID504764 (Drosophila RNAi Screening Center, 2011)
# Test: 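Genome-wide screen for regulators of Notch-driven gene expression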 (primary screen)
# Cells: Drosophila Kc167 cells
# Reagents: long dsRNA against Drosophila genes
# Time to read-out: about 5 days (4 days dsRNA, then 24 h after transfection)
# Treatment: transfection of constitutively active membrane-tethered Notch lacking the extracellular domain, read 24 h later
# Measured: 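Light from a Notch-responsive E(spl)m3 luciferase reporter under active Notch, with control-promoter and no-Notch reporter wells to normalise; raw counts from paired wells a and b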
# Scale: induced reporter light, run 1, well a and induced reporter light, run 1, well b: higher = more light from the Notch target reporter with active Notch; control promoter light, run 1, well a and control promoter light, run 1, well b: higher = more light from the viral control promoter (cell number, transfection, viability); uninduced reporter light, run 1, well a: higher = more light from the Notch target reporter without active Notch
# Hit rule: 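Wells with low control signal or poorly matching duplicates excluded; duplicates averaged; per source plate, z beyond ±2 for induced/control log2 ratio or beyond ±1.8 for induced/uninduced marks a hit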
# Calls: active = modifier hit (raised or lowered Notch signal); inactive = not a hit
# The screen tested about 22,000 reagents; shown is a random part of those with a known target gene and a result. In the full data, 403 (1.9%) were called active. 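Unnormalised raw counts per well; ratio z-scores behind the hit calls and whether each hit raises or lowers signal are not deposited.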 Entries without a mark were called inactive. Reagents against one gene are numbered here. The record does not give: the amount of reagent.
The first 8 records, ahead of the listing:
target,reagent no.,"induced reporter light, run 1, well a","induced reporter light, run 1, well b","control promoter light, run 1, well a","control promoter light, run 1, well b","uninduced reporter light, run 1, well a"
PPO2 (GeneID 35910),1,79535,50700,51040,49955,4650
a5 (GeneID 33317),1,94210,88660,1.05e5,77840,7655
CG6236 (GeneID 41857),1,1.03e5,81075,68285,63970,6265
Fatp3 (GeneID 37887),1,1.76e5,1.65e5,1.49e5,1.45e5,12335
Magi (GeneID 37403),1,82385,70500,40720,65535,5515
Magi (GeneID 37403),2,25790,46275,69540,64840,2440
CG8854 (GeneID 36324),1,1.77e5,1.58e5,1.83e5,1.56e5,13450
CG8607 (GeneID 38805),1,1.43e5,1.43e5,1.38e5,1.18e5,7060

The list itself, from the start:
target,reagent no.,"induced reporter light, run 1, well a","induced reporter light, run 1, well b","control promoter light, run 1, well a","control promoter light, run 1, well b","uninduced reporter light, run 1, well a"
PPO2 (GeneID 35910),1,79535,50700,51040,49955,4650
a5 (GeneID 33317),1,94210,88660,1.05e5,77840,7655
CG6236 (GeneID 41857),1,1.03e5,81075,68285,63970,6265
Fatp3 (GeneID 37887),1,1.76e5,1.65e5,1.49e5,1.45e5,12335
Magi (GeneID 37403),1,82385,70500,40720,65535,5515
Magi (GeneID 37403),2,25790,46275,69540,64840,2440
CG8854 (GeneID 36324),1,1.77e5,1.58e5,1.83e5,1.56e5,13450
CG8607 (GeneID 38805),1,1.43e5,1.43e5,1.38e5,1.18e5,7060
Or42b (GeneID 35516),1,2.53e5,2.32e5,2.08e5,2.44e5,15030
CG34325 (GeneID 32656),1,72470,63740,70810,85385,10560
CG34325 (GeneID 32656),2,50530,67955,64260,61610,7485
CG13585 (GeneID 37918),1,1.97e5,1.82e5,1.89e5,1.87e5,16100
CG10031 (GeneID 33594),1,1.58e5,1.14e5,1.46e5,1.26e5,9130
Top3beta (GeneID 31565),1,2.18e5,1.81e5,1.82e5,1.59e5,15095
trc (GeneID 40165),1,53900,44165,31375,31280,2820
Cont (GeneID 40553),1,1.15e5,85575,65125,80395,5720
Dim1 (GeneID 33645),1,71560,68140,65420,47605,3015
Sec5 (GeneID 33563),1,2.26e5,2.16e5,2.10e5,2.26e5,18060
CG14352 (GeneID 33341),1,1.58e5,1.10e5,1.09e5,92130,10735
Neb-cGP (GeneID 50417),1,93570,82395,1.13e5,96710,5505
CG10947 (GeneID 35309),1,1.99e5,2.10e5,2.44e5,2.33e5,16410
CG7737 (GeneID 36174),1,2.16e5,2.10e5,2.13e5,1.86e5,15785
Remo (GeneID 2768909),1,1.17e5,1.02e5,1.62e5,1.45e5,8120
Edg78E (GeneID 40354),1,1.40e5,1.07e5,1.04e5,79655,5030
CG14671 (GeneID 40671),1,82615,1.03e5,99895,92025,6305
Der-1 (GeneID 33369),1,1.83e5,1.74e5,2.13e5,1.92e5,16242
CG12288 (GeneID 35027),1,1.27e5,1.42e5,1.43e5,1.57e5,10778
CG1468 (GeneID 31920),1,1.33e5,1.52e5,1.52e5,1.55e5,9728
CG9784 (GeneID 32629),1,1.02e5,84005,82545,93800,11990
fax (GeneID 39826),1,1.04e5,94910,70025,81720,6875
Cpr67Fa2 (GeneID 39224),1,1.48e5,1.36e5,2.57e5,2.10e5,8945
Dred (GeneID 40124),1,64475,52610,43640,42235,3995
Dred (GeneID 40124),2,1.96e5,1.92e5,2.53e5,2.45e5,14860
Gli (GeneID 34927),1,1.18e5,1.27e5,1.41e5,1.46e5,9405
CG34357 (GeneID 5740349),1,1.61e5,1.32e5,1.18e5,1.20e5,17410
CG34357 (GeneID 5740349),2,47425,39095,27245,29340,7535
CG34357 (GeneID 5740349),3,52700,58675,45785,42060,3810
CG1690 (GeneID 36004),1,1.74e5,1.46e5,2.07e5,2.25e5,16435
S-Lap7 (GeneID 36524),1,95720,77605,1.02e5,1.09e5,7560
CG14879 (GeneID 41982),1,1.97e5,1.82e5,1.63e5,1.40e5,13735
Uxt (GeneID 34893),1,1.26e5,1.16e5,1.29e5,1.58e5,9850
CYTB (retired record) (GeneID 192472),1,1.12e5,1.12e5,1.15e5,1.51e5,11990
Cpr67Fb (GeneID 39225),1,1.71e5,1.43e5,2.13e5,2.47e5,8745
AP-1gamma (GeneID 31842),1,97115,96050,1.29e5,92340,6920
eEFSec (GeneID 37444),1,49390,55305,39290,32290,3005
CG18661 (GeneID 50438),1,1.20e5,1.65e5,85085,1.03e5,22030
euc (GeneID 42271),1,1.65e5,1.89e5,1.97e5,2.03e5,15100
RpL15 (GeneID 3354918),1,16020,17395,20920,19332,1570
CG31948 (GeneID 326178),1,1.36e5,1.13e5,1.09e5,76845,10220
CG5946 (GeneID 39336),1,1.03e5,1.24e5,1.66e5,1.25e5,6740
wdn (GeneID 43398),1,1.35e5,1.89e5,2.88e5,2.18e5,8815
CG33757 (GeneID 3772602),1,45435,56535,69220,76915,2380
Polr3F (GeneID 42619),1,1.04e5,93645,1.06e5,1.07e5,6860
e (GeneID 42521),1,1.82e5,1.90e5,2.44e5,2.71e5,16610
inaD (GeneID 37629),1,1.54e5,1.41e5,1.45e5,1.38e5,11140
CG8750 (GeneID 50285),1,1.44e5,1.14e5,2.10e5,1.83e5,8082
CG12725 (GeneID 32298),1,1.32e5,1.21e5,1.65e5,1.38e5,8160
Rhp (GeneID 32531),1,1.30e5,1.10e5,1.20e5,1.08e5,13735
CG31371 (GeneID 43626),1,1.10e5,1.05e5,1.97e5,1.85e5,11600
Eip75B (GeneID 39999),1,20860,17865,16750,15520,8775
CG30060 (GeneID 246426),1,2.33e5,2.12e5,3.01e5,2.81e5,18000
cype (GeneID 46040),1,1.66e5,1.58e5,1.84e5,1.48e5,10200
CG11342 (GeneID 38538),1,2.52e5,3.03e5,3.06e5,3.38e5,15418
Obp99c (GeneID 43494),1,1.39e5,1.47e5,2.19e5,1.86e5,13855
